# Assay results: the supplement of paper PMC12889115
# Some of the results follow. These are raw signals, not scaled to a control.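 In the initial screen, polymyxin B was used at a concentration that permeabilizes Salmonella's outer membrane but not its inner membrane. Maximum growth was set by DMSO wells with or without polymyxin B. Since plates varied, data were ranked per plate, and compounds giving the lowest OD600 advanced as hits.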
# System: Salmonella enterica serovar Typhimurium SL1344
# Experiment: bacterial growth OD600 after 18 h with compound and polymyxin B; higher = more bacterial growth (less inhibition)
# Conditions: 50 µM, Mueller-Hinton broth
SMILES,bacterial growth OD600 (polymyxin B 0.75 µg/mL),bacterial growth OD600 (polymyxin B 1 µg/mL)
OCC1(CCc2ccccc2)CCCN(Cc2ccc(O)c(Cl)c2)C1 (stereo not drawn),0.748,–
CC(C)CN(C)c1ccc(C(=O)NCc2noc(C(C)C)n2)cn1,–,1.03
COC(=O)CC(NC1CCN(c2ccc(C(=O)NCCN3CCOCC3)cc2)CC1)C(=O)OC (stereo not drawn),0.746,–
CCCN(CC1CC1)C(=O)CCC1(Cc2ccc3ccccc3c2)CCC(=O)N1 (stereo not drawn),0.75,–
CCCN(CC1CCCO1)C(=O)C1CCCN(c2nc(C)c3ccc(S(C)(=O)=O)cc3n2)C1 (stereo not drawn),0.009,–
O=C(c1ccc(N2CCC(NCC3CCCN(c4ncccn4)C3)CC2)cc1)N1CCOCC1 (stereo not drawn),0.865,–
CCOC(=O)C1(Cc2ccccc2Cl)CCN(C(=O)c2cccs2)CC1,–,0.03
CCN(Cc1nccn1C)C(=O)c1ccc(NCc2cccc(C)c2)nc1,–,0.859
COc1cccc(CC(C2CCN(C(=O)c3cccc(C)c3C)CC2)N(C)C(=O)c2ccn(C)n2)c1 (stereo not drawn),0.837,–
COCCN(CC1CCN(Cc2ccccc2F)CC1)C(=O)c1sc(C)nc1C,–,0.964
Cc1cc(C)n(CCCNC(=O)C2CCCN(C3CCN(C(C)C)CC3)C2)n1 (stereo not drawn),0.904,–
Cc1cc(CN2CCC(n3nccc3NC(=O)C(C)(C)C)CC2)cc(C)c1O,–,1.24
Cc1ccc(-c2n[nH]cc2CNCc2cc(C(F)(F)F)ccc2F)cc1C,–,0.017
C=CC[C@H]1CC(C)=C[C@H](CC=C)N1C(=O)CCC1(Cc2ccc(SC)cc2)CCC(=O)N1 (stereo partly drawn),0.039,–
CCN(CC1CCCN(CCc2cccc(F)c2)C1)C(=O)c1ccccc1 (stereo not drawn),–,0.994
CCN1CC(CN(C)Cc2cn(-c3ccccc3C)nc2-c2ccc(OC)c(F)c2)CC1=O (stereo not drawn),–,0.728
Cc1nc(CN2CCCC(CO)(Cc3ccc(F)cc3)C2)c[nH]1 (stereo not drawn),0.991,–
COCCN1C(=O)CC(CC(=O)N2CCC(C(O)Cc3ccccc3)CC2)(c2ccccc2C)C1=O (stereo not drawn),0.843,–

# One compound at a time (already shown). Values in the order: bacterial growth OD600 (polymyxin B 0.75 µg/mL)	bacterial growth OD600 (polymyxin B 1 µg/mL)
# CCCN(CC1CC1)C(=O)CCC1(Cc2ccc3ccccc3c2)CCC(=O)N1 (stereo not drawn) is entered as 0.75	–
# O=C(c1ccc(N2CCC(NCC3CCCN(c4ncccn4)C3)CC2)cc1)N1CCOCC1 (stereo not drawn) is entered as 0.865	–
